Laboratory results as given in PMC12890814.
No constants are given. Whether binding was seen depends on the method and setting. Some entries that bind do so weakly or less than the wild type.

The chains behind the UniProt entries cited, without tags or fusion partners. Where a name states a change or a piece, a line headed by the entry shows the natural chain unless it says otherwise.
UniProt Q15910: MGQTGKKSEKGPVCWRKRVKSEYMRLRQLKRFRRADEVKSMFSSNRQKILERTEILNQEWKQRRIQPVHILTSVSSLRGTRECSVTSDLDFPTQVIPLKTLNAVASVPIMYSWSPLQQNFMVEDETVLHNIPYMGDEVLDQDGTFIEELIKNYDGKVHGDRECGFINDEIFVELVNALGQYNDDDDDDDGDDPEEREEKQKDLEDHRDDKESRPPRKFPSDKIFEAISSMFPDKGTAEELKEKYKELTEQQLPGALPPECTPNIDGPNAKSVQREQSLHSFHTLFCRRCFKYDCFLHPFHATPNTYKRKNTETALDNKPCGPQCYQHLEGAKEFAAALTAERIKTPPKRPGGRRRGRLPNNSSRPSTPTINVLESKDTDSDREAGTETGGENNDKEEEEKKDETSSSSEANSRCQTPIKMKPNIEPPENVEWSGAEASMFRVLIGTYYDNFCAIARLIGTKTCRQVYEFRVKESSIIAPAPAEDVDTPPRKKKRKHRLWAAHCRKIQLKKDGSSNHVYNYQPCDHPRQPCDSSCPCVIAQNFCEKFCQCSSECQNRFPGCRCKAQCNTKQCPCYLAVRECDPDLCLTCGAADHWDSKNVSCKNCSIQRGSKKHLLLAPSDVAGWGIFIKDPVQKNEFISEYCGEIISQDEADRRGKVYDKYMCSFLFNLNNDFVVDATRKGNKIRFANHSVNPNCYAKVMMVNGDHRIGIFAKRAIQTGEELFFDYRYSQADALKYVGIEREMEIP
UniProt Q15022: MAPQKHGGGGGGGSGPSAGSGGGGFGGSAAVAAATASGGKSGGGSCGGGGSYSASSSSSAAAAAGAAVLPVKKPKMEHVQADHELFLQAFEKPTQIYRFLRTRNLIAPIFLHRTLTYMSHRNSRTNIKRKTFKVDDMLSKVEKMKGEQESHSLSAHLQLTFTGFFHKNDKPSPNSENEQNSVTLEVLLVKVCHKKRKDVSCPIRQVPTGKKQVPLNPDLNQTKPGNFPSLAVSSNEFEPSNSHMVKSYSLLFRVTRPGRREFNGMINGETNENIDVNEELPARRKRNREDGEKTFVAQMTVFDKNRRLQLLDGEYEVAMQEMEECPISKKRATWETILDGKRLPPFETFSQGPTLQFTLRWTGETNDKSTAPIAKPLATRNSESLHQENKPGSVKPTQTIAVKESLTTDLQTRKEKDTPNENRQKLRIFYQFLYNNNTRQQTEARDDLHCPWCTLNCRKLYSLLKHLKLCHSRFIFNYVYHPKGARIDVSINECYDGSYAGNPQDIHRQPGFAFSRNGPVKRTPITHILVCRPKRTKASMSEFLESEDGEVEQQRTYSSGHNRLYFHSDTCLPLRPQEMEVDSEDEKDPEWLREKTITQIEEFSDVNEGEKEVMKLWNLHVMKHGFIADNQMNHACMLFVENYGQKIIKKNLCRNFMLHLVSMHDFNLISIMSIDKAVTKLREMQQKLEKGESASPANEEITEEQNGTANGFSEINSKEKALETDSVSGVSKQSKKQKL
UniProt O75530: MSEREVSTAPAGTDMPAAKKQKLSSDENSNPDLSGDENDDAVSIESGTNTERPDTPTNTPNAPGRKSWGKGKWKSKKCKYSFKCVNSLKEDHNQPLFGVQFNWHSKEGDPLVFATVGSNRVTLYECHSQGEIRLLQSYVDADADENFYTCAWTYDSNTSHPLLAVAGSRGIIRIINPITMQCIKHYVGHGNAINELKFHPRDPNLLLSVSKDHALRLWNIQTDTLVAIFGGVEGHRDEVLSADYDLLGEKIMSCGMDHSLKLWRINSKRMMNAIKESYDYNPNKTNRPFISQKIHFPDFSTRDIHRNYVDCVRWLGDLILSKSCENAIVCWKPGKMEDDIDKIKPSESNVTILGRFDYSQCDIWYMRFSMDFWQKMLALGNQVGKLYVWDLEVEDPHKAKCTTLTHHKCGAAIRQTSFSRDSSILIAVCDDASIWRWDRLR
UniProt Q09028: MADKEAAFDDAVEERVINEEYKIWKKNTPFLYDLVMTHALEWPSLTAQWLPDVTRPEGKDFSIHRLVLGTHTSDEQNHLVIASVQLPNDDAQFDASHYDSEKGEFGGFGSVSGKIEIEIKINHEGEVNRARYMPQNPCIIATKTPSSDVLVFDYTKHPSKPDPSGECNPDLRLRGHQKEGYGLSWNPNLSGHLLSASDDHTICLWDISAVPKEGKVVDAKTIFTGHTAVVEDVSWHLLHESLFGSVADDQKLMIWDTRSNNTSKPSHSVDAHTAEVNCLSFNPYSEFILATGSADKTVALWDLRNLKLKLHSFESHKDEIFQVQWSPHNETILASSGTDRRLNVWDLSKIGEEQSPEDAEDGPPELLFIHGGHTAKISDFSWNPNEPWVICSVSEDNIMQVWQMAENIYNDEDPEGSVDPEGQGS
UniProt Q9Y483: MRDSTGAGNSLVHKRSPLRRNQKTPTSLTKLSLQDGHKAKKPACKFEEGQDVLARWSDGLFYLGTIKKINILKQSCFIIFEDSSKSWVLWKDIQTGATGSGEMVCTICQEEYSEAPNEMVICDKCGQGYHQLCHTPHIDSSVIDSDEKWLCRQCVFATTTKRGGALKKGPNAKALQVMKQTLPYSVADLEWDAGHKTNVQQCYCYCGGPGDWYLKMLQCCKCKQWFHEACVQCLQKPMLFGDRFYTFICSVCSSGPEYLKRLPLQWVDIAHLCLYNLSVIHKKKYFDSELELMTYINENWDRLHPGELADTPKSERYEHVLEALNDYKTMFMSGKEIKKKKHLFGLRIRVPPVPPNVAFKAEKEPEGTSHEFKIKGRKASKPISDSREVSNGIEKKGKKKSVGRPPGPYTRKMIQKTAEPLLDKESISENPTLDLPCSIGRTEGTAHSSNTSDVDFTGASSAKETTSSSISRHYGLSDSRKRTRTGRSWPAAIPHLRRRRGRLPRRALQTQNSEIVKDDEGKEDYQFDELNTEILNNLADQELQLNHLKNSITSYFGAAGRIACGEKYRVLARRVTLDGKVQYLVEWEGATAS

Target: PRC2 core complex (EZH2, SUZ12, EED, RBAP48) (human) (UniProt Q15910+Q15022+O75530+Q09028)
Assay: co-purification of co-expressed subunits (affinity resin, then SEC); All subunits co-expressed in Sf9 from one baculovirus; lysate in BC150 buffer; Strep-Tactin Macroprep resin (Strep on MTF2 and EZH2), tags cleaved, Superose 6 SEC, peak fractions pooled; subunits shown by Coomassie staining

binding: binds
Substance: MTF2 (from UniProt Q9Y483 1-593)
